Laboratory results as given in the supplement of paper PMC5949888.
Most values lie at the floor of the assay. Slopes are relative: functional sequences can read slightly below zero.

Test system: Saccharomyces cerevisiae PS128 hsf1 delta, HSF1(1-493) fusion
Test: growth estimate (transactivation domain function in HSF1 fusion, heat-shock survival) (a.u. (slope of normalised read count over time)); higher = stronger growth at 37°C, i.e. more transactivation activity
Settings: library: random library
Description: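 Random 60-nt DNA library encoding peptides of up to 20 aa, fused to the C-terminus of yeast HSF1 residues 1-493 (C-terminal TAD deleted) and expressed from the native HSF1 promoter on a CEN plasmid in hsf1-deleted S. cerevisiae PS128. Cells were selected at 37°C on -trp 5-FOA plates for 0, 2, 4, 6 and 8 days and amplicons were sequenced. Growth estimate is the slope of a robust linear fit of total-sum-normalised read counts (normalised to the first time point) over time, using at least 2 replicates. Sequences are classed functional (TAD activity) above a threshold of -0.13, set from stop-codon control sequences.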

Substance | growth estimate
FRSHKRSKRGLTQSTGAIDQ | < -0.25
FRSSGGPWGSRGIKSSALQC | < -0.25
FRVALRVKPFKLFR | < -0.25
FRVRQDDT | < -0.25
FRWACSLTSSRRART | < -0.25
FSAGK | < -0.25
FSAGLWDSVFGSKRYEWQVR | < -0.25
FSAIPS | < -0.25
FSALVRSYGPYGWSTATHAP | < -0.25
FSDETPNMYLSHGWIYTARL | < -0.25
FSDISRNLSILCSMHEV | < -0.25
FSEATRIVRPFSGAGS | < -0.25
FSERGISLPVASRHGHPTM | < -0.25
FSGIMKSCH | < -0.25
FSGVQETLKVETKYAW | < -0.25
FSKQFVQGVIIRMERAYALW | < -0.25
FSKVRTGRGRVGPPDSTSFR | < -0.25
FSLGFGTVPQSTGALTS | < -0.25
FSLIAFQIERLNVRRNAAA | < -0.25
FSLMSRCNGSPYLPSPE | < -0.25
FSLPDFSWT | 0.107
FSLTSTVREGRRTAHPRTGQ | -0.235
FSNYLTLRRGR | < -0.25
FSPDHCSCRLRSTKFYLGPK | < -0.25

Substance | growth estimate
FSPLHRARNRV | -0.245
FSPLPLDMPLCGTSETSQLG | < -0.25
FSQGYVPHREAH | < -0.25
FSQLAV | < -0.25
FSRDFFVA | < -0.25
FSRGVAS | < -0.25
FSRRRAYGVWPMKGCCHASA | < -0.25
FSRSE | < -0.25
FSRSRFLRYLNATPAISAGA | < -0.25
FSRVEDAHYAAPYRT | < -0.25
FSSRAWPRSTCLTGATNLLA | < -0.25
FSSRRRLALKCP | < -0.25
FSTCLRDNDFRGSFV | < -0.25
FSVLD | < -0.25
FSVRSDREVRSHVNLRYSQW | < -0.25
FSWIETASDK | < -0.25
FSYGSAYYQCDLSEPEHTRR | < -0.25
FTAGLGSTCPVEGPPKHSCG | -0.243
FTCPQSLLNLLPQYWQNMQV | < -0.25
FTDVLFFGGRTKATYHPSAK | < -0.25
FTFTLGAYPGVAGRRALAGP | < -0.25
FTG | < -0.25
FTGINVSYARQALLWVDAQY | < -0.25
FTGRA | < -0.25

Substance | growth estimate
FTGTPNAKSFACLIECHMPC | < -0.25
FTKITTYDW | < -0.25
FTKRAPAMVVTPGGPP | < -0.25
FTLLLNSLR | < -0.25
FTN | < -0.25
FTPFLFRCYSGRFNDCPRRR | < -0.25
FTRKRFHLATPCGAGKSYT | < -0.25
FTRQPLLLAERIVVSGISSV | < -0.25
FTS | < -0.25
FTVEQDEVGFEFHGMLLFWG | < -0.25
FTVSLTVLEGCVPVRLLIKP | < -0.25
FTYSFAVTNDKGSAHRL | < -0.25
FVAIGYGATTGQANPLTRVL | < -0.25
FVAVSDTGHLPEL | < -0.25
FVD | < -0.25
FVDSTGSTKFDSK | < -0.25
FVERGGVRVLHSQEYGFCDV | < -0.25
FVFQGLLTRSGQILVFVGSY | < -0.25
FVFVSLSFHQRTSLTMG | < -0.25
FVGPAAYTCCIKL | < -0.25
FVGPAHELRSRGRLCA | < -0.25
FVGQHVARATSAVPVLKWAY | < -0.25
FVGVGPTEPAVWRHICLHPH | -0.246
FVIDFDSFMSAYKRECHISF | < -0.25

Substance | growth estimate
FVIQLLGSFRALINWYFLGR | < -0.25
FVK | < -0.25
FVKSPCSSRFRFTAGPNPRI | < -0.25
FVKSRNERASSFHLTDRACN | < -0.25
FVLKE | < -0.25
FVP | -0.24
FVPTGGGLRRKDTHICHVAG | < -0.25
FVRGEQSICEIISFS | < -0.25
FVRRKA | < -0.25
FVRSPGGGGKSVISTCDGRH | < -0.25
FVRSSNTRLIRGRLTSCPPP | < -0.25
FVSQTSCQVMYSNFNYD | < -0.25
FVTACIHGSDCVCWPVWPRA | < -0.25
FVTATPEVRKRLLG | < -0.25
FVVEGVRDRRTFRNFSAWVG | < -0.25
FVVRGVSFSGLPL | < -0.25
FVVRVVLAVRRDYSAGPARK | < -0.25
FVYDVRRGRAPWPWPAGLLL | < -0.25
FWEA | < -0.25
FWFTSDLEDCVRRLKTGSLN | < -0.25
FWGNHRGACCLDIPKKHLCR | < -0.25
FWGSSNGDHDDGCMHRPIEM | < -0.25
FWKATLIPYQRENASPQPTR | < -0.25
FWQQDT | < -0.25

Substance | growth estimate
FWRCLGPSVKIYVATEVDNG | < -0.25
FWSMGYANAKEATTRFRKEI | < -0.25
FWTRRKLPV | < -0.25
FYGRLQLACEDLEIAGGRRP | < -0.25
FYL | < -0.25
FYPKVGMHG | < -0.25
FYRGHFKGFCGSPMPGRMRV | < -0.25
FYRGQYLPYLHRGGSRIRVL | < -0.25
FYVKFENKPLVEIRLQCRSR | < -0.25
FYYHLR | < -0.25
GAAIQCGLKATGLRTPDLVA | < -0.25
GACA | -0.242
GACEVGSEQILGTPGCAKEP | < -0.25
GACMRTESAKGLSSKNITVT | < -0.25
GAEMVNVQK | -0.246
GAFILQPYRGV | -0.205
GAGCSGKRTDVKANS | < -0.25
GAGDLYCSMASVKSGICFLC | < -0.25
GAGEGHDSAGCLVCFKTSCG | < -0.25
GAGGWGLNKVIAGPGTRAHH | < -0.25
GAGRLGGAAKPRCTLVPNRA | < -0.25
GAGSACLELSGDRAYAVELM | < -0.25
GAHRSEFSHTGRTRE | < -0.25
GAIGGR | < -0.25

Copied from the list.
GAGGWGLNKVIAGPGTRAHH – growth estimate: < -0.25
FYYHLR – growth estimate: < -0.25
GAGSACLELSGDRAYAVELM – growth estimate: < -0.25
GACEVGSEQILGTPGCAKEP – growth estimate: < -0.25
GAFILQPYRGV – growth estimate: -0.205
FYPKVGMHG – growth estimate: < -0.25
FYL – growth estimate: < -0.25

Later entries:

Substance | growth estimate
GAIIEEEG | < -0.25
GAIP | < -0.25
GAKDQPGLGGKPVHRCKLTV | < -0.25
GAKGYRRSSTVADGTIRIWN | < -0.25
GAKITGL | < -0.25
GAN | < -0.25
GAPAQPGVLASIGVSQNFLI | < -0.25
GAPGRRSEFPGGGVDVI | < -0.25
GAPIHTSFLSSKGAG | < -0.25
GAPNTLSRSMCIRGFIDPLN | < -0.25
GAPRCQHTYKSRHDHGFRG | < -0.25
GAQSNLPSIS | < -0.25
GAQVEGEIASGAYS | < -0.25
GARCGCKLLGVTSHAGQWIA | < -0.25
GARPITRAPAVLAGKPQDVR | < -0.25
GARRPHPSN | < -0.25
GASFQTHKPGCNPATKIQRT | < -0.25
GASI | < -0.25
GASLTASSGREFTTRGSSLI | < -0.25
GASNSQCQSLKSVVDLEATG | < -0.25
GASREDLVVNSFMALCGTSP | < -0.25
GAST | < -0.25
GASTIVPKSAEETNTLRGPA | < -0.25
